## Cleaved PARP in drug-treated melanoma cells

Values as published with doi:10.1371/journal.pone.0140310, rounded.

Drugs:
KU-55933 (5000 nM): O=c1cc(-c2cccc3c2Sc2ccccc2S3)oc(N2CCOCC2)c1
PF-04217903 (5000 nM): OCCn1cc(-c2cnc3nnn(Cc4ccc5ncccc5c4)c3n2)cn1
vincristine (0.5 nM): CC[C@]1(O)C[C@H]2CN(CCc3c([nH]c4ccccc34)[C@@](C(=O)OC)(c3cc4c(cc3OC)N(C=O)[C@H]3[C@@](O)(C(=O)OC)[C@H](OC(C)=O)[C@]5(CC)C=CCN6CC[C@]43[C@@H]65)C2)C1
FH535 (5000 nM): Cc1cc([N+](=O)[O-])ccc1NS(=O)(=O)c1cc(Cl)ccc1Cl
IMD-0354 (80 nM): O=C(Nc1cc(C(F)(F)F)cc(C(F)(F)F)c1)c1cc(Cl)ccc1O
AS-252424 (5000 nM): O=C1NC(=O)/C(=C/c2ccc(-c3ccc(F)cc3O)o2)S1
MK-2206 (2000 nM): NC1(c2ccc(-c3nc4ccn5c(=O)[nH]nc5c4cc3-c3ccccc3)cc2)CCC1
NVP-TAE684 (400 nM): COc1cc(N2CCC(N3CCN(C)CC3)CC2)ccc1Nc1ncc(Cl)c(Nc2ccccc2S(=O)(=O)C(C)C)n1
tipifarnib (50 nM): Cn1cncc1[C@@](N)(c1ccc(Cl)cc1)c1ccc2c(c1)c(-c1cccc(Cl)c1)cc(=O)n2C
SU6656 (2000 nM): CN(C)S(=O)(=O)c1ccc2c(c1)/C(=C/c1cc3c([nH]1)CCCC3)C(=O)N2
GW0742 (10000 nM): Cc1cc(SCc2sc(-c3ccc(C(F)(F)F)c(F)c3)nc2C)ccc1OCC(=O)O
PD173074 (500 nM): CCN(CC)CCCCNc1ncc2cc(-c3cc(OC)cc(OC)c3)c(NC(=O)NC(C)(C)C)nc2n1
GW2580 (5000 nM): COc1ccc(COc2ccc(Cc3cnc(N)nc3N)cc2OC)cc1
temozolomide (10000 nM): Cn1nnc2c(C(N)=O)ncn2c1=O

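Human melanoma cell lines in 1,536-well plates were treated with two drugs together for 72 h, then fixed, stained and imaged. Values are the share of nuclei positive for cleaved PARP as a percentage of the same share in the DMSO control: 100 is the control level, higher means more apoptosis. Concentrations were fixed for each drug; these are the higher of two levels. The file gives one value for each pair and line, without errors, so small differences may be noise. Basal and induced levels differ widely between cell lines.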 Only some of the drugs and lines screened are listed, without regard to their results.

- vincristine + NVP-TAE684 | A101D: 163; COLO 829: 117; MEL-HO: 77.3; RPMI-7951: 222
- temozolomide + MK-2206 | A101D: 178; COLO 829: 47.9; MEL-HO: 89.1; RPMI-7951: 253
- IMD-0354 + GW0742 | A101D: 36.8; COLO 829: 33.4; MEL-HO: 171; RPMI-7951: 166
- NVP-TAE684 + PD173074 | A101D: 153; COLO 829: 135; MEL-HO: 136; RPMI-7951: 211
- PF-04217903 + temozolomide | A101D: 111; COLO 829: 190; MEL-HO: 151; RPMI-7951: 136
- FH535 + PF-04217903 | A101D: 61.8; COLO 829: 141; MEL-HO: 221; RPMI-7951: 130
- KU-55933 + GW0742 | A101D: 163; COLO 829: 198; MEL-HO: 65.2; RPMI-7951: 81.9
- KU-55933 + MK-2206 | A101D: 138; COLO 829: 103; MEL-HO: 249; RPMI-7951: 67.6
- FH535 + KU-55933 | A101D: 198; COLO 829: 185; MEL-HO: 179; RPMI-7951: 44.3
- GW0742 + SU6656 | A101D: 80.1; COLO 829: 82.7; MEL-HO: 48.0; RPMI-7951: 243
- SU6656 + MK-2206 | A101D: 189; COLO 829: 98.8; MEL-HO: 105; RPMI-7951: 243
- FH535 + SU6656 | A101D: 77.1; COLO 829: 212; MEL-HO: 42.5; RPMI-7951: 197
- vincristine + PF-04217903 | A101D: 143; COLO 829: 56.2; MEL-HO: 70.8; RPMI-7951: 125
- vincristine + AS-252424 | A101D: 339; COLO 829: 104; MEL-HO: 98.4; RPMI-7951: 148
- PF-04217903 + GW2580 | A101D: 99.9; COLO 829: 87.0; MEL-HO: 48.4; RPMI-7951: 38.1
- IMD-0354 + SU6656 | A101D: 79.5; COLO 829: 99.8; MEL-HO: 194; RPMI-7951: 120
- vincristine + temozolomide | A101D: 108; COLO 829: 52.4; MEL-HO: 62.8; RPMI-7951: 70.1
- vincristine + PD173074 | A101D: 29.7; COLO 829: 98.1; MEL-HO: 118; RPMI-7951: 85.5
- MK-2206 + vincristine | A101D: 236; COLO 829: 198; MEL-HO: 111; RPMI-7951: 275
- vincristine + SU6656 | A101D: 400; COLO 829: 129; MEL-HO: 97.2; RPMI-7951: 241
- MK-2206 + FH535 | A101D: 154; COLO 829: 107; MEL-HO: 110; RPMI-7951: 147
- PF-04217903 + KU-55933 | A101D: 165; COLO 829: 185; MEL-HO: 53.1; RPMI-7951: 123
- NVP-TAE684 + GW2580 | A101D: 94.8; COLO 829: 148; MEL-HO: 52.3; RPMI-7951: 100
- AS-252424 + GW2580 | A101D: 48.1; COLO 829: 65.3; MEL-HO: 101; RPMI-7951: 69.4
- AS-252424 + KU-55933 | A101D: 37.6; COLO 829: 82.4; MEL-HO: 109; RPMI-7951: 62.9
- temozolomide + GW2580 | A101D: 188; COLO 829: 194; MEL-HO: 76.0; RPMI-7951: 82.6
- FH535 + vincristine | A101D: 251; COLO 829: 298; MEL-HO: 326; RPMI-7951: 157
- IMD-0354 + AS-252424 | A101D: 42.9; COLO 829: 87.0; MEL-HO: 101; RPMI-7951: 27.0
- SU6656 + PD173074 | A101D: 71.4; COLO 829: 76.6; MEL-HO: 151; RPMI-7951: 57.5
- IMD-0354 + vincristine | A101D: 138; COLO 829: 210; MEL-HO: 175; RPMI-7951: 42.1
- FH535 + temozolomide | A101D: 159; COLO 829: 68.8; MEL-HO: 108; RPMI-7951: 57.1
- tipifarnib + temozolomide | A101D: 66.2; COLO 829: 159; MEL-HO: 67.7; RPMI-7951: 68.4
- PD173074 + GW0742 | A101D: 90.3; COLO 829: 113; MEL-HO: 50.0; RPMI-7951: 143
- PD173074 + MK-2206 | A101D: 164; COLO 829: 93.2; MEL-HO: 88.6; RPMI-7951: 98.7
- GW0742 + AS-252424 | A101D: 81.0; COLO 829: 102; MEL-HO: 56.8; RPMI-7951: 76.8